Test results reported in paper PMC7950295.
No constants are given. Whether binding was seen depends on the method and setting. Binding seen in cells or lysates may run through a third protein. Some results given as binding are weak or reduced against the parent protein; the word gives no strength.

The chains behind the UniProt entries cited, without tags or fusion partners. Where a name states a change or a piece, a line headed by the entry shows the natural chain unless it says otherwise.
UniProt Q13315: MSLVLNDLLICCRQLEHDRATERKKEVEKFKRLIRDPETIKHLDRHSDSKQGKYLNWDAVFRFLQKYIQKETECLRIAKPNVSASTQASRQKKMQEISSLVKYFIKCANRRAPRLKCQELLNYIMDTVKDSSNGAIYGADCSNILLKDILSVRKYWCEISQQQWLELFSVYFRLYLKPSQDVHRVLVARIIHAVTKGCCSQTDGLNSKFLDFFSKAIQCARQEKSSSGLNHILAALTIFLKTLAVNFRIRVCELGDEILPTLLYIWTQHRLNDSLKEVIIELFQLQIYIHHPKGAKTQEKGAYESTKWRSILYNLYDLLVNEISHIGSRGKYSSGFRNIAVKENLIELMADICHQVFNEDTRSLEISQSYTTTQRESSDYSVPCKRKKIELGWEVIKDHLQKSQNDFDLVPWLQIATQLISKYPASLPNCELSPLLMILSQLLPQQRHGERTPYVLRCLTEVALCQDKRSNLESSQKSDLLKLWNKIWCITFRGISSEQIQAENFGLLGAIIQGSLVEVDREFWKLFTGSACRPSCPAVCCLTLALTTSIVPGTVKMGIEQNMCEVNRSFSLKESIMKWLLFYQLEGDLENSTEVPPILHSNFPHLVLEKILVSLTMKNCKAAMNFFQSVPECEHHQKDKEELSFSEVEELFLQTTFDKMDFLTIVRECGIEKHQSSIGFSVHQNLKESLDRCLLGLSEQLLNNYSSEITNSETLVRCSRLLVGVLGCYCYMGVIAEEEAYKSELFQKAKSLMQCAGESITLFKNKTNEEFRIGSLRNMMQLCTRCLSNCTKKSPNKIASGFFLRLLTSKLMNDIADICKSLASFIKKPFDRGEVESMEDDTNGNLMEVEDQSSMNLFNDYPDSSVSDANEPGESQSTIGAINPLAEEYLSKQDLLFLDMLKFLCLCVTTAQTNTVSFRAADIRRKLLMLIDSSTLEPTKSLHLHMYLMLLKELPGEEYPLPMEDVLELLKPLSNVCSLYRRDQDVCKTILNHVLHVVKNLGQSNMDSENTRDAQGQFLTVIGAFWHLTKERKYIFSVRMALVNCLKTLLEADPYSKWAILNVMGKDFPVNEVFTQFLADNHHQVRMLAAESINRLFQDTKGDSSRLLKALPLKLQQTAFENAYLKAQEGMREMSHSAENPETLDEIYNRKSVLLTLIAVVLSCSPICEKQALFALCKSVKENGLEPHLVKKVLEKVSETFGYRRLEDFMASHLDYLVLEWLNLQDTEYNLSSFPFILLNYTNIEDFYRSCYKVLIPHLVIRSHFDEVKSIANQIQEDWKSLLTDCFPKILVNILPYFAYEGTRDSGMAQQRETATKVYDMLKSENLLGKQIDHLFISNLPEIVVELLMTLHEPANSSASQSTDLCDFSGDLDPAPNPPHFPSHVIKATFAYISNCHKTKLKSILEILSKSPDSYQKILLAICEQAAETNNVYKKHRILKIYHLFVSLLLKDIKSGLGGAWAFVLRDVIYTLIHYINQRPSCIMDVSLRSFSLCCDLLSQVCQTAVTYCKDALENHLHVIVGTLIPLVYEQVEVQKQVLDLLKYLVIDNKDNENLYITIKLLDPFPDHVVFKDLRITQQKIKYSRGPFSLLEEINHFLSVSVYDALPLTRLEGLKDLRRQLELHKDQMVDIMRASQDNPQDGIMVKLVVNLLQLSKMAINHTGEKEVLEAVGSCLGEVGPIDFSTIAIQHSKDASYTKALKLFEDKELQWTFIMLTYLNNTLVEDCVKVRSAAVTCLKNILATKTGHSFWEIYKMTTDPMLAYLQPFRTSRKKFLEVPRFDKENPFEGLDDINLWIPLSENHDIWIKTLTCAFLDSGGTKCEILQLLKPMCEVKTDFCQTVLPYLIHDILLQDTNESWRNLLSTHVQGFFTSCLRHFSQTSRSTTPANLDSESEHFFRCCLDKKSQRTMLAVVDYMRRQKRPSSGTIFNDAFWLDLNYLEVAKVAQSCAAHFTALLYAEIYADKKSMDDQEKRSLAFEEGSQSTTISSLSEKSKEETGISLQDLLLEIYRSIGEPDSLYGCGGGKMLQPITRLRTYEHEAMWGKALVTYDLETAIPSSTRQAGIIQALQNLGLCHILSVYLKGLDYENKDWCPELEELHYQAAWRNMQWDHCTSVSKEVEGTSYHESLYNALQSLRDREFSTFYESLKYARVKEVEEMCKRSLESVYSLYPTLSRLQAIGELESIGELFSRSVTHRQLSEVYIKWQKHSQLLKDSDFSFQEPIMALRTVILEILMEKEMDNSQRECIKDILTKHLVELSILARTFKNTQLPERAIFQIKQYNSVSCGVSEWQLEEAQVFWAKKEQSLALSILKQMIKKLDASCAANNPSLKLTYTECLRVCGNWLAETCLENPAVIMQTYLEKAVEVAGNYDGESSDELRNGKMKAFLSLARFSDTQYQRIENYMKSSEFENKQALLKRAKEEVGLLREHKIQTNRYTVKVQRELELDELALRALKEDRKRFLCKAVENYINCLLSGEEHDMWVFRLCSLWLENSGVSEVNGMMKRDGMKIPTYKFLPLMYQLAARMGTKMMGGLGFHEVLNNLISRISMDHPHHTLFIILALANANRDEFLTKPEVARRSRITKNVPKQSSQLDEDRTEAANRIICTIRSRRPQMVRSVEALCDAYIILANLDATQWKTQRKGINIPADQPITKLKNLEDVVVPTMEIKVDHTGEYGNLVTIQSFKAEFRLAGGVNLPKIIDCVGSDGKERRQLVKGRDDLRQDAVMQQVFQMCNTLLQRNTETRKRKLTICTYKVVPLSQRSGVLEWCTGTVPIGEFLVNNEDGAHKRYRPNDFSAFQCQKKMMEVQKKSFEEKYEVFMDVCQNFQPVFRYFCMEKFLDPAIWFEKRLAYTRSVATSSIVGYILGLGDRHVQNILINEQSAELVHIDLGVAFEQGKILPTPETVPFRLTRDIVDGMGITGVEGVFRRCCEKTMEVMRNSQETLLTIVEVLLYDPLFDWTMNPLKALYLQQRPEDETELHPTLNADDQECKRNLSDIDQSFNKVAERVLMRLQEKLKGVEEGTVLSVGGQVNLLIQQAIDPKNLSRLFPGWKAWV

Target: ataxia-telangiectasia mutated kinase (human (endogenous in SRA01/04)) (UniProt Q13315)
Assay: co-IP; SRA01/04 cell lysate; 5 ug primary antibody or IgG (negative control) on protein A/G magnetic beads (Pierce Direct Magnetic IP/Co-IP Kit), 4 h at 4 C, 3 washes with lysis buffer, Western blot

B1: UBX domain-containing protein 1 (protein, UniProt Q04323 1-297)
chain: MAELTALESLIEMGFPRGRAEKALALTGNQGIEAAMDWLMEHEDDPDVDEPLETPLGHILGREPTSSEQGGLEGSGSAAGEGKPALSEEERQEQTKRMLELVAQKQREREEREEREALERERQRRRQGQELSAARQRLQEDEMRRAAEERRREKAEELAARQRVREKIERDKAERAKKYGGSVGSQPPPVAPEPGPVPSSPSQEPPTKREYDQCRIQVRLPDGTSLTQTFRAREQLAAVRLYVELHRGEELGGGQDPVQLLSGFPRRAFSEADMERPLQELGLVPSAVLIVAKKCPS
  binding: binds
